PubChem BioAssay AID652243 – Drosophila RNAi Screening Center | 2013
In all, the deposit lists about 24,000 reagents; shown is a random part of those with a known target gene and a result. Of all reagents, 246 (1%) got an active call. 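Plates not normalised; calls are printed but the firefly/Renilla ratio behind them is not deposited; fold cut for lowering reported inconsistently.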 Raw values are not corrected between plates. Not stated in the record: the amount of reagent.

Test: 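Knock-downs that decrease or increase androgen receptor reporter signal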 (primary screen)
System: Drosophila S2R+ cells
Reagents: long dsRNA against Drosophila genes
Duration: 72 h (48 h, then 24 h hormone)
Challenge: synthetic androgen R1881 at 10 nM for 24 h
Measurement: 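Firefly light from an androgen-responsive reporter and Renilla control light per well, raw and unnormalised, for each of two replicates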
Scale: firefly reporter light: higher = more light from androgen-responsive reporter; Renilla control light: higher = more constitutive control signal (cell number, transfection)
Active means: 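Across duplicate plates, a knock-down whose log firefly/Renilla ratio shifted a set fold down or up from the GFP/LacZ control mean was a hit; the downward cut appears as both 1.5 and 3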
Calls: active = hit: reporter lowered or raised; inactive = no hit

{"gene": "7B2", "DRSC id": "DRSC11991", "firefly reporter light, replicate 1": 1.13e5, "firefly reporter light, replicate 2": 1.50e5, "Renilla control light, replicate 1": 2.26e6, "Renilla control light, replicate 2": 2.03e6, "call": "inactive"}
{"gene": "Fkbp59 (FK506-binding protein 59kD)", "DRSC id": "DRSC03323", "firefly reporter light, replicate 1": 1.62e5, "firefly reporter light, replicate 2": 1.21e5, "Renilla control light, replicate 1": 1.15e6, "Renilla control light, replicate 2": 8.14e5, "call": "inactive"}
{"gene": "Fkbp59 (FK506-binding protein 59kD)", "DRSC id": "DRSC28356", "firefly reporter light, replicate 1": 4.09e5, "firefly reporter light, replicate 2": 4.51e5, "Renilla control light, replicate 1": 9.34e5, "Renilla control light, replicate 2": 1.25e6, "call": "inactive"}
{"gene": "Argp (Arginine phosphatase)", "DRSC id": "DRSC16510", "firefly reporter light, replicate 1": 2.11e5, "firefly reporter light, replicate 2": 1.12e5, "Renilla control light, replicate 1": 2.34e6, "Renilla control light, replicate 2": 2.55e6, "call": "inactive"}
{"gene": "Argp (Arginine phosphatase)", "DRSC id": "DRSC36981", "call": "inactive"}

2 entries from above in another layout:
gene,DRSC id,"firefly reporter light, replicate 1","firefly reporter light, replicate 2","Renilla control light, replicate 1","Renilla control light, replicate 2",call
Fkbp59 (FK506-binding protein 59kD),DRSC03323,1.62e5,1.21e5,1.15e6,8.14e5,inactive
Fkbp59 (FK506-binding protein 59kD),DRSC28356,4.09e5,4.51e5,9.34e5,1.25e6,inactive

Additional results follow.
{"gene": "CG15803", "DRSC id": "DRSC15121", "firefly reporter light, replicate 1": 89024, "firefly reporter light, replicate 2": 1.18e5, "Renilla control light, replicate 1": 1.47e6, "Renilla control light, replicate 2": 1.69e6, "call": "inactive"}
{"gene": "Cyp309a2 (Cytochrome P450 309a2)", "DRSC id": "DRSC00526", "firefly reporter light, replicate 1": 1.02e5, "firefly reporter light, replicate 2": 88399, "Renilla control light, replicate 1": 7.91e5, "Renilla control light, replicate 2": 6.54e5, "call": "inactive"}
{"gene": "Cyp309a2 (Cytochrome P450 309a2)", "DRSC id": "DRSC30018", "firefly reporter light, replicate 1": 8.27e5, "firefly reporter light, replicate 2": 6.24e5, "Renilla control light, replicate 1": 1.34e6, "Renilla control light, replicate 2": 1.49e6, "call": "inactive"}
{"gene": "CG42748", "DRSC id": "DRSC03712", "firefly reporter light, replicate 1": 2.71e5, "firefly reporter light, replicate 2": 1.15e5, "Renilla control light, replicate 1": 1.70e6, "Renilla control light, replicate 2": 1.03e6, "call": "inactive"}
{"gene": "CG42748", "DRSC id": "DRSC03713", "firefly reporter light, replicate 1": 1.02e6, "firefly reporter light, replicate 2": 8.61e5, "Renilla control light, replicate 1": 1.91e6, "Renilla control light, replicate 2": 2.00e6, "call": "inactive"}
{"gene": "CG42748", "DRSC id": "DRSC03734", "firefly reporter light, replicate 1": 1.57e5, "firefly reporter light, replicate 2": 1.74e5, "Renilla control light, replicate 1": 1.22e6, "Renilla control light, replicate 2": 1.36e6, "call": "inactive"}
{"gene": "CG42748", "DRSC id": "DRSC28935", "firefly reporter light, replicate 1": 2.18e5, "firefly reporter light, replicate 2": 3.77e5, "Renilla control light, replicate 1": 6.47e5, "Renilla control light, replicate 2": 1.00e6, "call": "inactive"}
{"gene": "IntS3 (Integrator 3)", "DRSC id": "DRSC21215", "firefly reporter light, replicate 1": 1.40e5, "firefly reporter light, replicate 2": 1.08e5, "Renilla control light, replicate 1": 2.92e5, "Renilla control light, replicate 2": 3.91e5, "call": "inactive"}
{"gene": "CG5823", "DRSC id": "DRSC15881", "firefly reporter light, replicate 1": 40835, "firefly reporter light, replicate 2": 98502, "Renilla control light, replicate 1": 5.85e5, "Renilla control light, replicate 2": 7.81e5, "call": "inactive"}
